In PubChem BioAssay AID662 (National Center for Advancing Translational Sciences (NCATS), 2007):
Some of the results follow. Shown are side measurements of this screen, not its main read-out; they come without a call. Compounds called inactive in the main read-out are mostly missing here. The note in brackets gives the kind of curve behind each potency; many fits are weak.

Experiment: Cell signaling CRE-BLA (Fsk stim)
Settings: CHO CRE-bla reporter (cAMP response element driving beta-lactamase), forskolin EC10, beta-lactamase ratio; measured here: 460 nm blue channel
Method in brief: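 The 460nm/530nm emission ratio after CCF4 loading defined %Activity, from which AC50 values were obtained. CRE-bla CHO cells received compound dilution series together with an EC10 level of NKH 477 for 3 hours at 37 degrees Celsius.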

SMILES | AC50
Cc1sc2nc(CN3CCOCC3)nc(Oc3ccc(NC(=O)c4ccco4)cc3)c2c1C | 3.16 µM [rising, full curve]
Fc1ccccc1CSc1ncnc2c1oc1ccccc12 | 10 µM [falling, partial curve]
COc1ccc(CNC(=O)C(C)NC(=O)c2cc3ccccc3o2)cc1 (centres undefined) | 0.1 µM [falling, full curve]
CCCc1cc(=O)n2[nH]c(NCc3ccccc3Cl)nc2n1 | 31.6 µM [falling, single point]
Cc1cccc(CNc2ncncc2-c2ccc3c(c2)OCO3)c1 | 10 µM [rising, partial curve]
O=C(CSc1ncccn1)NCc1ccccc1 | 0.398 µM [falling, full curve]
CCCCCC(=O)Nc1cc(N(C)C)nc2ccccc12 | 0.398 µM [rising, full curve, poor fit]
O=C(CCC(=O)N1CCCC1)Nc1nnc(C2CCCCC2)s1 | 5.01 µM [falling, single point]
COCCn1c(=O)c(-c2cccc(F)c2)nc2cncnc21 | 12.6 µM [rising, partial curve]
NC(=O)CSC1=Nc2ccccc2C2=NC(CC(=O)NCc3cccs3)C(=O)N12 (centres undefined) | 0.0251 µM [falling, full curve]
CCOc1cc(N2CCOCC2)c(OCC)cc1NC(=O)Cc1cn2ccsc2n1 | 20 µM [rising, single point]
O=C(NC(Cc1ccccc1)C(=O)O)OCc1ccccc1 (centres undefined) | 0.794 µM [falling, full curve]
COc1cc(C(=O)OCn2nnc3ccccc3c2=O)cc(OC)c1OC | 5.01 µM [rising, partial curve]
N#Cc1c(-c2ccccc2)nc(N2CCOCC2)[nH]c1=O | 20 µM [falling, single point]
CCOC(=O)C1=C(CNCc2ccccc2Cl)NC(=O)NC1c1ccc2c(c1)OCO2 (centres undefined) | 12.6 µM [rising, partial curve]
Cc1nn(-c2ccccc2)c2c1P(=O)(O)/C(=C1\N(C)c3ccccc3C1(C)C)C=N2 | 12.6 µM [rising, single point]
CC(=O)Nc1ccc(NC(=O)c2ccccc2N(C)S(C)(=O)=O)cc1 | 12.6 µM [falling, single point]
c1ccc(Nc2nc3ccccc3[nH]2)nc1 | 0.2 µM [falling, full curve, poor fit]
COC(=O)c1ccsc1NC(=O)CSc1nnnn1Cc1ccccc1 | 0.0251 µM [falling, full curve, poor fit]
Cn1c(=O)[nH]c(=O)c2c1nc(Br)n2CCCSc1nc2ccccc2o1 | 7.94 µM [rising, partial curve]
Cc1ccc(NC(=O)C2CCN(S(=O)(=O)c3cccc4nonc34)CC2)nc1 | 1 µM [falling, partial curve, poor fit]
CCOC(=O)N1CCN(C(=O)CSCC(=O)Nc2nc(-c3ccc(OC)cc3)cs2)CC1 | 25.1 µM [falling, partial curve]
CCOC(=O)Cc1csc(NC(=O)c2ccco2)n1 | 0.00316 µM [falling, full curve, poor fit]

Some of these compounds in order of count of non-hydrogen atoms, high to low:
SMILES | AC50
Cc1sc2nc(CN3CCOCC3)nc(Oc3ccc(NC(=O)c4ccco4)cc3)c2c1C | 3.16 µM [rising, full curve]
CCOC(=O)N1CCN(C(=O)CSCC(=O)Nc2nc(-c3ccc(OC)cc3)cs2)CC1 | 25.1 µM [falling, partial curve]
Cc1ccc(NC(=O)C2CCN(S(=O)(=O)c3cccc4nonc34)CC2)nc1 | 1 µM [falling, partial curve, poor fit]
COc1ccc(CNC(=O)C(C)NC(=O)c2cc3ccccc3o2)cc1 (centres undefined) | 0.1 µM [falling, full curve]
O=C(NC(Cc1ccccc1)C(=O)O)OCc1ccccc1 (centres undefined) | 0.794 µM [falling, full curve]
N#Cc1c(-c2ccccc2)nc(N2CCOCC2)[nH]c1=O | 20 µM [falling, single point]

Additional compounds follow.

SMILES | AC50
N#Cc1c2c(c(N3CCN(CCO)CC3)n3c1nc1ccccc13)CCCC2 | 15.8 µM [rising, partial curve]
Cc1ccc2cc3cc(C(=O)NCCC(C)C)oc3nc2c1 | 0.398 µM [falling, partial curve]
CCC(=O)N1CCc2cc(S(=O)(=O)NCCCN(CC)Cc3ccccc3)ccc21 | 0.0158 µM [rising, single point]
N=c1n(Cc2ccccc2)c2ccccc2n1CC(O)COc1ccccc1 (centres undefined) | 2.51 µM [falling, full curve]
c1ccc(CNc2ncnc3ccccc23)cc1 | 3.98 µM [falling, partial curve]
O=C(CC1OC(=O)c2ccccc21)NC1CCCCC1 (centres undefined) | 5.01 µM [falling, single point]
COc1cc(NC(=O)c2ccco2)c(OC)cc1NC(=O)Nc1cccc(Cl)c1 | 25.1 µM [rising, partial curve]
CCCn1c(-c2ccc(F)cc2)nc2c(NCCCCN3CCCC3)nc(C)nc21 | 6.31 µM [rising, partial curve]
Cc1[nH]c(=O)[nH]c(=O)c1CSc1nnc(CCCCCNC(=O)OC(C)(C)C)o1 | 1.58 µM [falling, single point]
C=CCOC(=O)Nc1c(C(=O)OC)[nH]c2ccc(Cl)cc12 | 10 µM [falling, partial curve]
Cc1ccc(OCc2nnc(SCC(=O)Nc3cc(C)on3)n2C)cc1 | 0.1 µM [falling, single point]
COc1ccc(OC)c(S(=O)(=O)N2CCC(C(=O)Nc3ccc(C)c(C)c3)CC2)c1 | 12.6 µM [falling, single point]
Cc1noc(C)c1CN1C(=O)NC(Cc2ccccc2)(Cc2ccccc2)C1=O | 0.126 µM [falling, single point]
O=C(CN(C(=O)CNS(=O)(=O)c1ccccc1)c1ccc2c(c1)OCCO2)NCc1ccco1 | 3.16 µM [falling, single point]
O=C(Nc1cccc(C(F)(F)F)c1)c1cc(S(=O)(=O)N2CCCCC2)ccc1N1CCOCC1 | 2.51 µM [falling, full curve, poor fit]
C/C(Cl)=C\CSc1nnc2n(N)c(=O)c3ccccc3n12 | 25.1 µM [rising, single point]
CCOc1ccccc1C(=O)Nc1nccs1 | 5.01 µM [rising, partial curve]
Cn1c(Cc2ccccc2)nnc1SCC(=O)Nc1ccccc1N1CCOCC1 | 0.0251 µM [rising, full curve, poor fit]
COc1cccc(NC(=O)CCS(=O)(=O)c2cccs2)c1 | 5.01 µM [falling, partial curve]
CC(C)NC(=O)CSc1nnc(-c2ccc(C(C)(C)C)cc2)n1C | 0.126 µM [falling, full curve]
COC(=O)Cn1nc(-c2ccc(C)c(S(=O)(=O)N(C)C)c2)c2ccccc2c1=O | 1.58 µM [rising, partial curve]
O=C(N1CCCC1)n1c(Cc2ccccc2)nc2ccccc21 | 0.00631 µM [falling, full curve, poor fit]
CCOc1ccc2c(c1)c1nnc(SCC3CCCO3)nc1n2C (centres undefined) | 6.31 µM [rising, partial curve]

SMILES | AC50
c1ccc2[nH]c(-c3cscn3)nc2c1 | 12.6 µM [rising, single point]
Cc1ccc(S(=O)(=O)NCC(=O)N(CCc2ccccc2)CC(=O)NCc2ccco2)cc1 | 10 µM [falling, partial curve]
N#Cc1cccc(-c2nc(Nc3ccccc3)c3ccccc3n2)c1 | 6.31 µM [rising, partial curve]
O=C1CSC2=NCN(c3ccc4c(c3)OCO4)CN12 | 0.0631 µM [rising, single point]
COc1ccc(Oc2ncc3nc(CCc4ccccc4)c(=O)n(CCC#N)c3n2)cc1 | 12.6 µM [rising, single point]
O=C(Nc1nc2nc(-c3ccccc3)cc(-c3ccccc3)n2n1)c1ccco1 | 10 µM [rising, single point]
COc1ccc(C2CC3CC(c4ccccc4)N2O3)cc1 (centres undefined) | 0.0316 µM [falling, partial curve, poor fit]
c1ccc2c(c1)Cn1nc(Cc3nc4c(s3)CCCC4)nc1-2 | 25.1 µM [rising, single point]
CCOC(=O)c1ccc(NC(=O)CSc2nc3c(c(=O)n2CC)SC(C)C3)cc1 (centres undefined) | 10 µM [rising, partial curve]
CCOC(=O)C1=C(C)N=c2s/c(=C\C(=O)OC)c(=O)n2C1c1ccc(OC)cc1 (centres undefined) | 15.8 µM [falling, single point]
COc1ccc(NC2=Nc3ccccc3CC2)cc1 | 3.16 µM [falling, single point]
CC(C)Cn1c(SCC(=O)NC(=O)NC2CCCC2)nc2ccccc21 | 0.398 µM [falling, partial curve]
O=C(Cc1cn2ccsc2n1)NCCc1ccc(F)cc1 | 5.01 µM [falling, single point]
Cc1ccc(Nc2cc(C)nc3nc(C)nn23)cc1 | 10 µM [rising, partial curve]
O=C(Oc1cc2oc(=O)c3c(c2cc1Cl)CCCC3)c1ccco1 | 15.8 µM [rising, single point]
COc1ccc(CCNC(=O)Cn2cnc3c(cnn3C(C)(C)C)c2=O)cc1OC | 3.98 µM [rising, partial curve]
CCCCOCCCNC(=O)c1ccccc1OCC | 0.126 µM [rising, full curve]
CCC(Oc1ccccc1)C(=O)N1CCN(c2ccccn2)CC1 (centres undefined) | 0.1 µM [falling, partial curve]
COC(=O)C1C(=O)c2c([nH]c(C(=O)OC3CCCC3C)c2C)CC1C (centres undefined) | 0.316 µM [rising, full curve, poor fit]
CCN(CCCNC(=O)c1c(C)cc(=O)oc1C)c1cccc(C)c1 | 25.1 µM [rising, single point]
COc1ccccc1C(=O)N1CCc2ccccc21 | 0.631 µM [falling, full curve, poor fit]
O=C(NCCn1ccc2ccccc21)c1ccc(S(=O)(=O)N2CCCCC2)cc1 | 10 µM [rising, partial curve]
CCN(CC)c1nc(N(CC)CC)[nH]c(=O)n1 | 0.00398 µM [falling, full curve, poor fit]
